Results on three molecules are retold here after article doi:10.1101/2023.10.26.564161.

No constants are given. Whether binding was seen depends on the method and setting. In cells and extracts the contact can be indirect. Some entries that bind do so weakly or less than the wild type. Sequences can lack the tags named with a protein.

The target in assay [1] is T1, Fatty Acid Export Protein1 fused to nYFP (FAX1:YFP^C-n) (Arabidopsis thaliana) (UniProt Q93V66).
T1 sequence: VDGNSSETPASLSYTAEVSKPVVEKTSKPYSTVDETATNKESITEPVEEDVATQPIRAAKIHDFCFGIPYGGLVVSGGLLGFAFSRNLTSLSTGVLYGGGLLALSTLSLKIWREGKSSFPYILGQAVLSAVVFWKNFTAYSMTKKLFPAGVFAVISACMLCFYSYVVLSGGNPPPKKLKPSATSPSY
The assay is described as follows: split reporter.

Assay [2] has as its target T2, Rhomboid-like protease11 fused to cYFP (RBL11:YFP^C-c) (Arabidopsis thaliana) (UniProt Q84MB5).
T2 sequence: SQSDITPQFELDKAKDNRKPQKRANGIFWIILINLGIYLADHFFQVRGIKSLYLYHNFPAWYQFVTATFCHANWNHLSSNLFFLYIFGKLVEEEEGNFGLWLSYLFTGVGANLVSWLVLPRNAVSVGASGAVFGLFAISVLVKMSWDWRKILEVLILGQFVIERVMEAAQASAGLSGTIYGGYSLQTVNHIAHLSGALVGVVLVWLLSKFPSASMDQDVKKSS
The assay is described as follows: split reporter.

B1: Rhomboid-like protease11 fused to cYFP (RBL11:YFP^C-c) (enzyme, UniProt Q84MB5 58-280)
chain: T2 sequence
Consider B1, for which the binding result in assay [1] is recorded as “binds”.

B2: FtsH11 protease fused to cYFP (FTSH11:YFP^C-c) (enzyme, UniProt Q9FGM0 64-806)
chain: QDNVASDSDFIPKDSAFEVTDSAESNRLVSDTEVSELETNDRFVGGEETKSGGEEAEVSNGVTEGKEEDQKKSKFRIVVLMMALWAAIKRAIEKVMEWEWLSWWPFSRQEKRLEKLIAEADANPKDAALQGALLAELNKHIPEAVVQRFEQREHTVDSRGVAEYIRALVITNAISEYLPDEQTGKPSSLPALLQELKHRASGNMDESFVNPGISEKQPLHVTMVNPKVSNKSRFAQELVSTILFTVAVGLVWIMGAAALQKYIGSLGGIGTSGVGSSSSYSPKELNKEITPEKNVKTFKDVKGCDDAKQELEEVVEYLKNPSKFTRLGGKLPKGILLTGAPGTGKTLLAKAIAGEAGVPFFYRAGSEFEEMFVGVGARRVRSLFQAAKKKAPCIIFIDEIDAVGSTRKQWEGHTKKTLHQLLVEMDGFEQNEGIIVMAATNLPDILDPALTRPGRFDRHIVVPSPDVRGREEILELYLQGKPMSEDVDVKAIARGTPGFNGADLANLVNIAAIKAAVEGAEKLSSEQLEFAKDRIVMGTERKTMFVSEDSKKLTAYHESGHAIVALNTKGAHPIHKATIMPRGSALGMVTQLPSNDETSVSKRQLLARLDVCMGGRVAEELIFGLDHITTGASSDLSQATELAQYMVSSCGMSEAIGPVHIKERPSSDMQSRIDAEVVKLLREAYERVKSLLKRHEKQLHTLANALLEYETLTAEDIKRILLPKQEGEKFEEQQQEEGDLVLA
Turning to B2, the binding result in assay [1] is on record as “no binding”.

B3: FtsH11 protease fused to nYFP (FTSH11:YFP^C-n) (enzyme, UniProt Q9FGM0 64-806)
chain: B2 chain
For the molecule B3, the binding entry in assay [2] is recorded as “no binding”.
